Results on 2 substances are retold here after article PMC4900676.

The target of experiment [1] is T1, Myc-SmoΔC650 (Drosophila) (UniProt P91682).
T1 sequence: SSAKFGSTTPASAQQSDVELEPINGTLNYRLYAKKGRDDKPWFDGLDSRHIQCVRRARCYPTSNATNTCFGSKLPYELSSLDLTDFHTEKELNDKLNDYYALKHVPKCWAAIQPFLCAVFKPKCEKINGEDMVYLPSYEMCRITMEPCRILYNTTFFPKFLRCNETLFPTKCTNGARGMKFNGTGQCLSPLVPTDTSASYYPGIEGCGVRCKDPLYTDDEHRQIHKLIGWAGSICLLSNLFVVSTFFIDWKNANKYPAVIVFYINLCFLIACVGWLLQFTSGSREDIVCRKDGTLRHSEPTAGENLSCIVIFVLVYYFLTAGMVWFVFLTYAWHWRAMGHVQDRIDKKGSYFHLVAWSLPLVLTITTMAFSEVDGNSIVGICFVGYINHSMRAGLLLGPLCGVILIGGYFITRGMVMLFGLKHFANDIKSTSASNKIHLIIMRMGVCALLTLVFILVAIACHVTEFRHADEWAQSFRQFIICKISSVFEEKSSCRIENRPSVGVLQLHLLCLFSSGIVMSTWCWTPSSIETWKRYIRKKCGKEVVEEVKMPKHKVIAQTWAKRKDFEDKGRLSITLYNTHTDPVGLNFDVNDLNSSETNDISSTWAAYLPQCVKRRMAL
Kind of experiment: co-IP; S2 cells transfected with the indicated constructs, grown with or without Hh-conditioned medium for 24 h (MG132 50 μM for 4 h before harvest in Fig 7A-D and G); lysates precipitated with Myc (HA or Flag) antibody and protein A-Sepharose, western blot. For orientation: In western blotting, separated proteins are transferred to a membrane and probed.

In experiment [2] the target is T2, Myc-Smo (Drosophila Smoothened, Myc-tagged) (Drosophila) (UniProt P91682).
T2 sequence: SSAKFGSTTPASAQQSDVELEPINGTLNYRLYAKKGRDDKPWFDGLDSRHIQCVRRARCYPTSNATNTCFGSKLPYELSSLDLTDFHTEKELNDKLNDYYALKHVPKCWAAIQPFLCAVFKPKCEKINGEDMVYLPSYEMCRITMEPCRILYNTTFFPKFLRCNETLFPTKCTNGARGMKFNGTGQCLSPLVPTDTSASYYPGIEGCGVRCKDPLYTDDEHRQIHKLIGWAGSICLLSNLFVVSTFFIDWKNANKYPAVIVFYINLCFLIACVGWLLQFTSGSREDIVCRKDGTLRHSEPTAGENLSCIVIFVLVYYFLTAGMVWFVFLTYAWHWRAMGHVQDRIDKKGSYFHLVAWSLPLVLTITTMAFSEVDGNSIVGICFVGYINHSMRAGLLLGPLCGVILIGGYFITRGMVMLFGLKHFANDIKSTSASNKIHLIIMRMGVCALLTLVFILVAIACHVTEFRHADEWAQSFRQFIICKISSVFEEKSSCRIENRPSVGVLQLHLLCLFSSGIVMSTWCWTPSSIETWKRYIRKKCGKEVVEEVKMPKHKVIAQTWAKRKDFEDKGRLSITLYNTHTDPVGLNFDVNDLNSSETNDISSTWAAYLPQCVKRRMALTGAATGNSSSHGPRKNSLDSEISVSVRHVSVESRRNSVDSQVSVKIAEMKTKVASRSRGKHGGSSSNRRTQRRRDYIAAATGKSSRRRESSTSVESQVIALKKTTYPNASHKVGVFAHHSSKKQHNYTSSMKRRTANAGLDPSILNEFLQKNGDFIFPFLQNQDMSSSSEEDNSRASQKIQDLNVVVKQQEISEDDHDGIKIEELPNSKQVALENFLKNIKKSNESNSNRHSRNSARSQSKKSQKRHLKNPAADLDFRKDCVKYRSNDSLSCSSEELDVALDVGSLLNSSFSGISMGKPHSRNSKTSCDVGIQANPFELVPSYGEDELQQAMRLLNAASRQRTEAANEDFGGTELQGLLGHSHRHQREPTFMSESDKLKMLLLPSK
Described as above.

These are yes or no findings as the source states them, for the method shown. Binding seen in cells or lysates may run through a third protein. Binding calls can cover weak binding; strength is not graded here. Sequences can lack the tags named with a protein.

On to HA-Gish (Drosophila) (enzyme), for which the binding entry in experiment [1] and in experiment [2] was “binds” in each case.
Regarding “endogenous Gish (Gilgamesh, Drosophila CK1γ) (enzyme)”, the binding entry in experiment [2] is listed as “binds”.
